# Results reported in patent US12390490B2, “Sphingolipid-based selenium compounds, methods for their preparation, and pharmaceutical uses thereof, including as antitumor agents” (MUSC FOUNDATION FOR RESEARCH DEVELOPMENT, priority 2019, dated 2025).
# At least one structure is not confirmed: it was looked up by name or label, or the drawing left a doubt.
# Experiments:
# HNSCC organoids = experiment: Ex vivo 2D HNSCC patient organoids, CerS1/Tom20 co-localization (mitophagy); format: cell-based, human; settings: ex vivo treatment
# From the text: FIG. 14A is a series of microscopy images showing the H&E staining (top row) and fluorescence imaging of the co-localization of translocase of outer mitochondrial membrane 20 (Tom20) and CerS1 (as a measure of mitophagy, middle row) in two-dimensional (2D) organoids developed from a patient with head and neck squamous cell carcinoma (HNSCC) in response to treatment with vehicle, LCL-768, sodium selenite (SoSe), rapamycin, or cisplatin ex vivo. Co-localization of cis-Golgi matrix protein 130 kDa (GM130) and Calnexin was used as a negative control (bottom row).
# FIG. 14B is a graph showing the quantification of colocalization of Tom20 and CerS1 from the treated two-dimensional (2D) organoids described for FIG. 14A.
# (§1) To validate the clinical relevance of the activation of mitophagy, 2D organoids^4 were developed using tumor tissues obtained from a patient with HNSCC. […] The co-localization of GM130/Calnexin was used as a control.
# [1] = system: non-cancerous adjacent tissue organoids; experiment: Ex vivo non-cancerous adjacent tissue organoids, mitophagy; format: cell-based, human; settings: ex vivo treatment, same patient
# From the text: as §1
smiles,measurement,setting,value
"O=[Se](O)O [sodium selenite, reference compound]",mitophagy (co-localization of CerS1 and Tom20) compared to vehicle-treated controls,HNSCC organoids,induced mitophagy
same,mitophagy induction in non-cancerous adjacent tissue organoids,[1],did not affect mitophagy induction
